We go through 1 molecule from the supplement of paper PMC8728848.

The list shows a part of the results.

Holding throughout (assay): glycan array binding signal (z-score within array); higher = stronger binding
What all share (conditions): glycan notation: IUPAC condensed, linker removed

For assay [1], the target named is Gal(b1-4)GlcNAc(b1-2)[Gal(b1-4)GlcNAc(b1-6)]Man(a1-6)[GlcNAc(b1-4)][Gal(b1-4)GlcNAc(b1-2)Man(a1-3)]Man(b1-4)GlcNAc(b1-4)GlcNAc. The procedure, abridged:
(§1)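 The binding signal is a Z-score computed within each array. Data were drawn from 3228 arrays in the Consortium for Functional Glycomics database, restricted to those with a known protein sequence. Scores were averaged over arrays of the same protein sequence at different concentrations or buffers, and over linkers, and negative values can be taken as non-binding.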

For assay [2], the target named is Gal(b1-4)GlcNAc(b1-2)[Gal(b1-4)GlcNAc(b1-6)]Man(a1-6)[GlcNAc(b1-4)][Gal(b1-4)GlcNAc(b1-2)[Gal(b1-4)GlcNAc(b1-4)]Man(a1-3)]Man(b1-4)GlcNAc(b1-4)[Fuc(a1-6)]GlcNAc. In outline:
as §1

Assay [3] has as its target Gal(b1-4)GlcNAc(b1-3)Gal(b1-3)GalNAc. The procedure, abridged: as §1
Assay [4] deals with Gal(b1-4)GlcNAc(b1-3)Gal(b1-3)GlcNAc. The procedure, abridged:
as §1

The target in assay [5] is Gal(b1-4)GlcNAc(b1-3)Gal(b1-4)Glc. The procedure, abridged: as §1
For assay [6], the target named is Gal(b1-4)GlcNAc(b1-3)Gal(b1-4)GlcNAc. The procedure, abridged: as §1
The target in assay [7] is Gal(b1-4)GlcNAc(b1-3)Gal(b1-4)GlcNAc(b1-2)Man(a1-3)[Gal(b1-4)GlcNAc(b1-3)Gal(b1-4)GlcNAc(b1-2)Man(a1-6)]Man(b1-4)GlcNAc(b1-4)GlcNAc. The procedure, abridged: as §1
Assay [8] addresses Gal(b1-4)GlcNAc(b1-3)Gal(b1-4)GlcNAc(b1-2)Man(a1-3)[Gal(b1-4)GlcNAc(b1-3)Gal(b1-4)GlcNAc(b1-2)Man(a1-6)]Man(b1-4)GlcNAc(b1-4)[Fuc(a1-6)]GlcNAc. In outline: as §1
Assay [9] deals with Gal(b1-4)GlcNAc(b1-3)Gal(b1-4)GlcNAc(b1-2)[Gal(b1-4)GlcNAc(b1-3)Gal(b1-4)GlcNAc(b1-6)]Man(a1-6)[Gal(b1-4)GlcNAc(b1-3)Gal(b1-4)GlcNAc(b1-2)Man(a1-3)]Man(b1-4)GlcNAc(b1-4)GlcNAc. In outline: as §1
Assay [10] concerns the target Gal(b1-4)GlcNAc(b1-3)Gal(b1-4)GlcNAc(b1-2)[Gal(b1-4)GlcNAc(b1-3)Gal(b1-4)GlcNAc(b1-6)]Man(a1-6)[Gal(b1-4)GlcNAc(b1-3)Gal(b1-4)GlcNAc(b1-2)Man(a1-3)]Man(b1-4)GlcNAc(b1-4)[Fuc(a1-6)]GlcNAc. The procedure, abridged: as §1
Assay [11] addresses Gal(b1-4)GlcNAc(b1-3)Gal(b1-4)GlcNAc(b1-3)Gal(b1-4)GlcNAc. The procedure, abridged:
as §1

Assay [12] concerns the target Gal(b1-4)GlcNAc(b1-3)Gal(b1-4)GlcNAc(b1-3)Gal(b1-4)GlcNAc(b1-2)Man(a1-3)[Gal(b1-4)GlcNAc(b1-3)Gal(b1-4)GlcNAc(b1-3)Gal(b1-4)GlcNAc(b1-2)Man(a1-6)]Man(b1-4)GlcNAc(b1-4)GlcNAc. The procedure, abridged:
as §1

The target of assay [13] is Gal(b1-4)GlcNAc(b1-3)Gal(b1-4)GlcNAc(b1-3)Gal(b1-4)GlcNAc(b1-2)Man(a1-3)[Gal(b1-4)GlcNAc(b1-3)Gal(b1-4)GlcNAc(b1-3)Gal(b1-4)GlcNAc(b1-2)Man(a1-6)]Man(b1-4)GlcNAc(b1-4)[Fuc(a1-6)]GlcNAc. In outline:
as §1

Assay [14] deals with Gal(b1-4)GlcNAc(b1-3)Gal(b1-4)GlcNAc(b1-3)Gal(b1-4)GlcNAc(b1-2)[Gal(b1-4)GlcNAc(b1-3)Gal(b1-4)GlcNAc(b1-3)Gal(b1-4)GlcNAc(b1-6)]Man(a1-6)[Gal(b1-4)GlcNAc(b1-3)Gal(b1-4)GlcNAc(b1-3)Gal(b1-4)GlcNAc(b1-2)Man(a1-3)]Man(b1-4)GlcNAc(b1-4)[Fuc(a1-6)]GlcNAc. The procedure, abridged: as §1
In assay [15] the target is Gal(b1-4)GlcNAc(b1-3)Gal(b1-4)GlcNAc(b1-3)Gal(b1-4)GlcNAc(b1-3)Gal(b1-4)GlcNAc(b1-2)Man(a1-3)[Gal(b1-4)GlcNAc(b1-3)Gal(b1-4)GlcNAc(b1-3)Gal(b1-4)GlcNAc(b1-3)Gal(b1-4)GlcNAc(b1-2)Man(a1-6)]Man(b1-4)GlcNAc(b1-4)GlcNAc. The procedure, abridged: as §1
In assay [16] the target is Gal(b1-4)GlcNAc(b1-3)Gal(b1-4)GlcNAc(b1-3)Gal(b1-4)GlcNAc(b1-3)Gal(b1-4)GlcNAc(b1-2)Man(a1-3)[Gal(b1-4)GlcNAc(b1-3)Gal(b1-4)GlcNAc(b1-3)Gal(b1-4)GlcNAc(b1-3)Gal(b1-4)GlcNAc(b1-2)Man(a1-6)]Man(b1-4)GlcNAc(b1-4)[Fuc(a1-6)]GlcNAc. In outline:
as §1

Assay [17] deals with Gal(b1-4)GlcNAc(b1-3)Gal(b1-4)GlcNAc(b1-3)Gal(b1-4)GlcNAc(b1-3)Gal(b1-4)GlcNAc(b1-2)[Gal(b1-4)GlcNAc(b1-3)Gal(b1-4)GlcNAc(b1-3)Gal(b1-4)GlcNAc(b1-3)Gal(b1-4)GlcNAc(b1-6)]Man(a1-6)[Gal(b1-4)GlcNAc(b1-3)Gal(b1-4)GlcNAc(b1-3)Gal(b1-4)GlcNAc(b1-3)Gal(b1-4)GlcNAc(b1-2)Man(a1-3)]Man(b1-4)GlcNAc(b1-4)[Fuc(a1-6)]GlcNAc. In outline:
as §1

In assay [18] the target is Gal(b1-4)GlcNAc(b1-3)Gal(b1-4)GlcNAc(b1-3)Gal(b1-4)GlcNAc(b1-3)Gal(b1-4)GlcNAc(b1-3)Gal(b1-4)GlcNAc(b1-2)Man(a1-3)[Gal(b1-4)GlcNAc(b1-3)Gal(b1-4)GlcNAc(b1-3)Gal(b1-4)GlcNAc(b1-3)Gal(b1-4)GlcNAc(b1-3)Gal(b1-4)GlcNAc(b1-2)Man(a1-6)]Man(b1-4)GlcNAc(b1-4)GlcNAc. In outline: as §1
The target in assay [19] is Gal(b1-4)GlcNAc(b1-3)Gal(b1-4)GlcNAc(b1-3)Gal(b1-4)GlcNAc(b1-3)Gal(b1-4)GlcNAc(b1-3)Gal(b1-4)GlcNAc(b1-2)Man(a1-3)[Gal(b1-4)GlcNAc(b1-3)Gal(b1-4)GlcNAc(b1-3)Gal(b1-4)GlcNAc(b1-3)Gal(b1-4)GlcNAc(b1-3)Gal(b1-4)GlcNAc(b1-2)Man(a1-6)]Man(b1-4)GlcNAc(b1-4)[Fuc(a1-6)]GlcNAc. The procedure, abridged:
as §1

In assay [20] the target is Gal(b1-4)GlcNAc(b1-3)Gal(b1-4)GlcNAc(b1-3)Gal(b1-4)GlcNAc(b1-3)Gal(b1-4)GlcNAc(b1-3)Gal(b1-4)GlcNAc(b1-2)[Gal(b1-4)GlcNAc(b1-3)Gal(b1-4)GlcNAc(b1-3)Gal(b1-4)GlcNAc(b1-3)Gal(b1-4)GlcNAc(b1-3)Gal(b1-4)GlcNAc(b1-6)]Man(a1-6)[Gal(b1-4)GlcNAc(b1-3)Gal(b1-4)GlcNAc(b1-3)Gal(b1-4)GlcNAc(b1-3)Gal(b1-4)GlcNAc(b1-3)Gal(b1-4)GlcNAc(b1-2)Man(a1-3)]Man(b1-4)GlcNAc(b1-4)[Fuc(a1-6)]GlcNAc. In outline: as §1

For assay [21], the target named is Gal(b1-4)GlcNAc(b1-3)Gal(b1-4)GlcNAc(b1-3)Gal(b1-4)GlcNAc(b1-3)Gal(b1-4)GlcNAc(b1-3)Gal(b1-4)GlcNAc(b1-3)Gal(b1-4)GlcNAc(b1-2)Man(a1-3)[Gal(b1-4)GlcNAc(b1-3)Gal(b1-4)GlcNAc(b1-3)Gal(b1-4)GlcNAc(b1-3)Gal(b1-4)GlcNAc(b1-3)Gal(b1-4)GlcNAc(b1-3)Gal(b1-4)GlcNAc(b1-2)Man(a1-6)]Man(b1-4)GlcNAc(b1-4)GlcNAc. The procedure, abridged: as §1
Assay [22] addresses Gal(b1-4)GlcNAc(b1-3)Gal(b1-4)GlcNAc(b1-3)GalNAc. The procedure, abridged:
as §1

Assay [23] has as its target Gal(b1-4)GlcNAc(b1-3)Gal(b1-4)GlcNAc(b1-3)[Gal(b1-4)GlcNAc(b1-3)Gal(b1-4)GlcNAc(b1-6)]GalNAc. In outline:
as §1

B1: Mermaid2 (Stilbonema majum) (protein)
chain: MGSSHHHHHHSSGLVPRGSHMAASGWLRSPQGTVVKLYRRSLSWSKADEFCKDVDGRLVVDRTADMHLFLIKNVLKEKKSRVWVGLRRTAPHSRTWIWSDGTRQNEDDLNTNLWLRDEPNDAAGEEECALFMYSPWEKAWGLNDYLCRGGCRSYQFICEKGIR
For the molecule B1, the “glycan array binding signal (z-score)” value in assay [1] was -0.237; in assay [2], -0.723; in [3], 0.04; in assay [4], -0.634; in [5] it was -0.068; in assay [6] it was -0.047. For the same molecule, the “glycan array binding signal (z-score)” value in [7] was -0.21; in [8] it was -0.278; in assay [9], 5.21; in assay [10] it was 0.398; in [11] it was 0.308; in assay [12], -0.095. For the same molecule, the “glycan array binding signal (z-score)” value in assay [13] was -0.138; in [14] it was -0.084; in [15], 0.136; in assay [16], 0.363; in assay [17], 0.456; in assay [18], 0.012. Further, the “glycan array binding signal (z-score)” value in assay [19] is -0.539; in assay [20], -0.215; in [21], -0.526; in assay [22] it was -0.552; in [23], 0.639.
